Values from PubChem BioAssay AID652272 (Drosophila RNAi Screening Center, 2013).
In all, the deposit lists about 21,000 reagents; this is an unselected part of those that have a named target and a result. Of all reagents, 503 (2.4%) are marked active. 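Raw plate light values, not normalised; calls rest on replicate z-scores that were not deposited; hits include reporter decreases as well as increases.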 The numbers tell different reagents against one gene apart. Names joined by + are all predicted targets of the reagent. The record does not give: the amount of reagent, the time to read-out.

Aim: 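Finding fly genes that regulate Hedgehog signal transduction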 (primary screen)
Cell system: Drosophila clone 8 (Cl8) cells
Knock-down reagent: long dsRNA against Drosophila genes
Detection: 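Firefly light from a Hedgehog-responsive ptc promoter reporter and Renilla reference light, both read on a plate reader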
Scale: firefly Hh reporter signal: higher = more ptc reporter light; Renilla reference signal: higher = more Renilla control light
Hit rule: 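Hit when the z-score averaged over two replicates is under -2 or over +3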
Calls: active = hit: reporter lowered or raised; inactive = not a hit

Target gene	reagent no.	firefly Hh reporter signal, replicate 1	firefly Hh reporter signal, replicate 2	firefly Hh reporter signal, replicate 3	Renilla reference signal, replicate 1	Renilla reference signal, replicate 2	outcome
O-fut1	1	1.44e5	95184		5552	3904	inactive
Nhe1	1	1.45e5	1.47e5		5634	5233	inactive
COX7AL2	1	6.08e5	3.19e5		32397	11241	inactive
CG15772	1	82869	2.25e5		3121	7984	inactive
qm	1	62560	78816		7072	5436	inactive
CG30156	1	1.56e5	2.33e5		4172	9703	inactive
hay	1	68145	97512		3469	3574	inactive
CG43610	1	5.27e5	1.87e5		24977	7184	inactive
CG30271	1	94089	57977		1587	5418	inactive
CG7542	1	1.34e5			2848	3424	inactive
CG7382	1	56220	49287		2825	2811	inactive
CG2909	1	66108	1.43e5		1190	5337	inactive
CG43894	1	3.16e5			6298		inactive
CG43894	2	29078	28713	37568	2994	2649	inactive
UBL3	1	88176	1.59e5		2825	6570	inactive
CG5828	1	1.19e5	53632		3306	5073	inactive
unc-13-4A	1	63782	69163		7885	4886	inactive
unc-13-4A	2	37835	56843		5155	4421	inactive
unc-13-4A	3	15056	9558		2673	1095	active
unc-13-4A	4	36897	48912		4392	3699	inactive
CG31917 + Tfb5	1	1.66e5	78028		3216	5533	inactive
CG31917 + Tfb5	2	64641	42790		1574	2487	inactive
CG14439	1	58919	2.67e5		2296	9921	inactive
Nha1	1	1.73e5	65827		6432	2596	inactive
eIF3g2	1	4.79e5	60027		20884	1312	inactive
btsz	1	37349	40896		1392	1280	inactive
btsz	2	50819	35252		1857	1335	inactive
btsz	3	84953	92896		3350	3057	inactive
btsz	4	92166	76611		3041	2109	inactive
CG8435	1	77788	42884		5120	3107	active
CG14820	1	68007	75605		7005	5097	inactive
UGP	1	1.41e5	85515		5961	3609	inactive
tws	1	1.71e5			3526		inactive
tws	2	1.07e5	79091		3217	2226	inactive
Wdr92	1	1.32e5			2237	7041	inactive
Ccz1	1	69779	32100		2026	2779	inactive
Prps	1	1.15e5	2.49e5		2689	9290	inactive
Prps	2	24427	59828	77153	4648	4538	inactive
Prps	3	46520	1.04e5	82611	7421	5936	inactive
Gpa2	1	55745	1.43e5		1068	6717	inactive
unc-45	1	1.05e5	1.64e5		3930	4448	inactive
CG14221	1	73904	1.95e5		1684	8018	inactive
Mbs	1	2.14e5			5328		inactive
Mbs	2	79069	74021		2837	3189	inactive
Mbs	3	1.96e5			8709	5379	inactive
Or46a + asRNA:CR43467	1	1.21e5	75360		3217	6596	inactive
Or46a + asRNA:CR43467	2	83495	62636		2006	4635	inactive
CR31958	1	1.90e5	77079		4608	7530	inactive
CG5033	1	94042	56960		5067	3296	inactive
lncRNA:CR32368	1	99138	1.89e5		2773	8897	inactive
kz	1	66311	1.53e5		1494	6547	inactive
CG10492	1	33572	30091		1641	1351	inactive
CG1309	1	1.81e5	82903		5765	3216	inactive
CG13690	1	1.18e5	73012		2795	1673	inactive
bsh	1	4.32e5	77264		4297	4297	inactive
mago	1	1.23e5	81091		2426	5450	inactive
CG5897	1	40412	45845	38609	5506	3184	inactive

Laid out differently: entries from further up.
{"Target gene":"Mbs","reagent no.":1,"firefly Hh reporter signal, replicate 1":2.14e5,"Renilla reference signal, replicate 1":5328,"outcome":"inactive"}
{"Target gene":"Mbs","reagent no.":2,"firefly Hh reporter signal, replicate 1":79069,"firefly Hh reporter signal, replicate 2":74021,"Renilla reference signal, replicate 1":2837,"Renilla reference signal, replicate 2":3189,"outcome":"inactive"}
{"Target gene":"Mbs","reagent no.":3,"firefly Hh reporter signal, replicate 1":1.96e5,"Renilla reference signal, replicate 1":8709,"Renilla reference signal, replicate 2":5379,"outcome":"inactive"}
{"Target gene":"Or46a + asRNA:CR43467","reagent no.":1,"firefly Hh reporter signal, replicate 1":1.21e5,"firefly Hh reporter signal, replicate 2":75360,"Renilla reference signal, replicate 1":3217,"Renilla reference signal, replicate 2":6596,"outcome":"inactive"}
{"Target gene":"Or46a + asRNA:CR43467","reagent no.":2,"firefly Hh reporter signal, replicate 1":83495,"firefly Hh reporter signal, replicate 2":62636,"Renilla reference signal, replicate 1":2006,"Renilla reference signal, replicate 2":4635,"outcome":"inactive"}
